Measured values: PubChem BioAssay AID180 (DTP/NCI, 2004)
The list does not hold the whole screen: it is rich in T/C values a quarter to a half above the control, in often repeated tests (any T/C) and in doses without a T/C. Further doses and runs are listed elsewhere. T/C is the treated group as % of the vehicle group. Schedule codes are those of the source, read here as Q, the interval in days (D) or hours (H), X, the number of doses. Some T/C values are followed by the survivors on the day toxicity was checked, most often the fifth; without a count, all were alive then. Some entries hold several experiments; the results are listed from low to high. Some entries give survivors of the animals treated and no T/C: the source holds a T/C of zero for them, seemingly a mark for toxic or unscored doses. Survivors were counted at the toxicity check, usually on the fifth day, unless a day is given; later deaths do not show. Some schedule codes hold Z or #, which are not explained here.

Test system: BDF1 mice, Adenocarcinoma 755 s.c., tumor weight T/C
Test: NCI In Vivo Anticancer Drug Screen. Data for tumor model Adenocarcinoma 755 (subcutaneous) in B6D2F1 (BDF1) mice
Conditions: T/C endpoint: mean tumor weight, higher T/C = larger tumour; for T/C: evaluated on day 12
How it was run: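 Tumor-bearing mice receive test compound while controls get vehicle alone. Antitumor effect is scored from survival or tumor dimensions as a T/C quotient.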

[1] = dose: 100.0 mg/kg/injection, schedule: Q01DX011 (ip), vehicle: saline
[2] = dose: 100.0 mg/kg/injection, schedule: Q01DX011 (ip), vehicle: carboxymethylcellulose (CMC)
[3] = dose: 400.0 mg/kg/injection, schedule: Q01DX011 (oral), vehicle: carboxymethylcellulose (CMC)
[4] = dose: 60.0 mg/kg/injection, schedule: Q01DX011 (ip), vehicle: carboxymethylcellulose (CMC)
[5] = dose: 8.0 mg/kg/injection, schedule: Q01DX011 (ip), vehicle: saline
[6] = dose: 1.5 mg/kg/injection, schedule: Q01DX011 (ip), vehicle: methylcellulose (MC)

How did the T/C (dose: 62.0 mg/kg/injection, schedule: Q01DX011 (ip), vehicle: methylcellulose (MC)) turn out when CN(C)c1nc(N)c2ncn(C3OC(CO)C(O)C3O)c2n1 (stereo not given) was run?
Its T/C is 135 % of control.

Which T/C (dose: 1.0 mg/kg/injection, schedule: Q01DX011 (oral), vehicle: other) does the source give for ClCCn1cnc2c(SCc3ccccc3Cl)ncnc21 here?
Its T/C is 145 % of control.

How did the survivor count (dose: 50.0 mg/kg/injection, schedule: Q01DX011 (ip), vehicle: saline) turn out when N#[N+]c1nc2ncnc(N)c2[nH]1 was run?
Its survivor count is 2 of 12.

For CCCCCCCCCCCCNCCCCCCCCCCCC, which survivor count (dose: 2.5 mg/kg/injection, schedule: Q01DX006 (ip), vehicle: other) is on record?
The survivor count was 6 of 10.

And the survivor count (dose: 5.0 mg/kg/injection, schedule: Q01DX006 (ip), vehicle: other)?
The survivor count was 3 of 10.

And the survivor count (dose: 7.5 mg/kg/injection, schedule: Q01DX006 (ip), vehicle: other)?
The survivor count was 1 of 10.

Which survivor count (dose: 10.0 mg/kg/injection, schedule: Q01DX011 (sc), vehicle: steroid suspending solution) does the source give for C[C@]12CCC(=O)C=C1CC[C@@H]1[C@@H]2[C@@H](O)C[C@@]2(C)[C@H]1CC[C@]2(O)C(=O)CO here?
Its survivor count is 2 of 10.

What about the survivor count (dose: 160.0 mg/kg/injection, schedule: Q01DX011 (sc), vehicle: steroid suspending solution) of the same compound?
Its survivor count is 6 of 10.

With O=P1(N(CCCl)CCCl)NCCCO1 (stereo not given) as the compound, how does the survivor count [1] read?
The survivor count was 4 of 10.

And the survivor count (dose: 200.0 mg/kg/injection, schedule: Q01DX011 (ip), vehicle: saline)?
Its survivor count is 0 of 10.

With O=P(N1CCCCC1)(N1CC1)N1CC1 as the compound, how does the survivor count (dose: 14.0 mg/kg/injection, schedule: Q01DX011 (ip), vehicle: saline) read?
Its survivor count is 6 of 10.

For Cc1c2ccccc2c(C)c2c1ccc1ccccc12, which survivor count (dose: 76.0 mg/kg/injection, schedule: Q01DX011 (ip), vehicle: carboxymethylcellulose (CMC)) is on record?
Its survivor count is 4 of 10.

COc1ccc2c(c1)CCC(c1ccccc1)=C2c1ccc(OCCN2CCCC2)cc1 was tested. Which survivor count (dose: 50.0 mg/kg/injection, schedule: Q01DX011 (sc), vehicle: steroid suspending solution) did it give?
Its survivor count is 0 of 10.

And the survivor count (dose: 100.0 mg/kg/injection, schedule: Q01DX011 (sc), vehicle: steroid suspending solution)?
Its survivor count is 0 of 10.

Which T/C (dose: 240.0 mg/kg/injection, schedule: Q01DX011 (ip), vehicle: saline) does the source give for Cn1c(N)nc2c(ncn2C2OC(CO)C(O)C2O)c1=O (stereo not given) here?
Its T/C is 131 % of control.

For CCn1cnc2c(=S)nc[nH]c21, which survivor count (dose: 12.5 mg/kg/injection, schedule: Q#A X022 (ip), vehicle: carboxymethylcellulose (CMC)) is on record?
Its survivor count is 6 of 10.

And the survivor count (dose: 50.0 mg/kg/injection, schedule: Q01DX011 (ip), vehicle: carboxymethylcellulose (CMC))?
Its survivor count is 6 of 10.

What about the survivor count (dose: 50.0 mg/kg/injection, schedule: Q#A X022 (ip), vehicle: carboxymethylcellulose (CMC)) of the same compound?
The survivor count was 1 of 10.

What about the survivor count (dose: 100.0 mg/kg/injection, schedule: Q01DX006 (iv), vehicle: carboxymethylcellulose (CMC)) of the same compound?
Its survivor count is 6 of 10.

And the survivor count [2]?
The survivor count was 1 of 10.

What about the survivor count (dose: 200.0 mg/kg/injection, schedule: Q01DX011 (im), vehicle: carboxymethylcellulose (CMC)) of the same compound?
The survivor count was 0 of 10.

What about the survivor count (dose: 200.0 mg/kg/injection, schedule: Q01DX011 (oral), vehicle: carboxymethylcellulose (CMC)) of the same compound?
Its survivor count is 0 of 10.

What about the survivor count [3] of the same compound?
The survivor count was 0 of 10.

What about the survivor count (dose: 600.0 mg/kg/injection, schedule: Q03DX004 (ip), vehicle: carboxymethylcellulose (CMC)) of the same compound?
The survivor count was 0 of 10.

And the survivor count (dose: 700.0 mg/kg/injection, schedule: Q07DX002 (ip), vehicle: carboxymethylcellulose (CMC))?
The survivor count was 1 of 10.

With CSc1nc(Cl)c2cc[nH]c2n1 as the compound, how does the T/C [4] read?
Its T/C is 127 % of control [9 of 10 alive].

Which results are given for N#CCSc1ncnc2nc[nH]c12?
survivor count (dose: 4.0 mg/kg/injection, schedule: Q01DX011 (iv), vehicle: carboxymethylcellulose (CMC)): 3 of 10; survivor count (dose: 8.0 mg/kg/injection, schedule: Q#A X022 (ip), vehicle: carboxymethylcellulose (CMC)): 5 of 10; survivor count (dose: 16.0 mg/kg/injection, schedule: Q#A X022 (ip), vehicle: carboxymethylcellulose (CMC)): 5 of 10; survivor count (dose: 32.0 mg/kg/injection, schedule: Q#A X022 (ip), vehicle: carboxymethylcellulose (CMC)): 1 of 10; survivor count (dose: 64.0 mg/kg/injection, schedule: Q#A X022 (ip), vehicle: carboxymethylcellulose (CMC)): 0 of 10; survivor count (dose: 128.0 mg/kg/injection, schedule: Q01DX011 (ip), vehicle: carboxymethylcellulose (CMC)): 1 of 10; survivor count (dose: 200.0 mg/kg/injection, schedule: Q03DX004 (ip), vehicle: carboxymethylcellulose (CMC)): 4 of 10; survivor count (dose: 256.0 mg/kg/injection, schedule: Q01DX011 (ip), vehicle: carboxymethylcellulose (CMC)): 0 of 10; survivor count (dose: 400.0 mg/kg/injection, schedule: Q01DX001 (ip), vehicle: carboxymethylcellulose (CMC)): 0 of 10; survivor count [3]: 0 of 10; survivor count (dose: 400.0 mg/kg/injection, schedule: Q03DX004 (ip), vehicle: carboxymethylcellulose (CMC)): 0 of 10; survivor count (dose: 400.0 mg/kg/injection, schedule: Q07DX002 (ip), vehicle: carboxymethylcellulose (CMC)): 0 of 10; survivor count (dose: 800.0 mg/kg/injection, schedule: Q01DX001 (ip), vehicle: carboxymethylcellulose (CMC)): 0 of 10; survivor count (dose: 800.0 mg/kg/injection, schedule: Q01DX011 (oral), vehicle: carboxymethylcellulose (CMC)): 0 of 10; survivor count (dose: 800.0 mg/kg/injection, schedule: Q07DX002 (ip), vehicle: carboxymethylcellulose (CMC)): 0 of 10

Which results are given for CCCCOP(=O)(N1CC1C)N1CC1C (stereo not given)?
T/C (dose: 4.0 mg/kg/injection, schedule: Q01DX011 (ip), vehicle: saline): 59 [8 of 10 alive], 60, 84 [9 of 10 alive], 157, 170 % of control; T/C [5]: 39, 60, 96, 110 % of control; survivor count [5]: 6 of 10; survivor count (dose: 32.0 mg/kg/injection, schedule: Q01DX011 (ip), vehicle: saline): 3 of 10

O=[N+]([O-])O.[Ga] was tested. Which survivor count [1] did it give?
The survivor count was 2 of 12.

Which results are given for CCNc1ncnc2c1cnn2C1CCCO1 (stereo not given)?
survivor count [6]: 6 of 10; survivor count (dose: 12.5 mg/kg/injection, schedule: Q01DX011 (ip), vehicle: methylcellulose (MC)): 6 of 10

With COc1cc(/C=N/Nc2nc3c([nH]2)c(=O)n(C)c(=O)n3C)ccc1O as the compound, how does the T/C [4] read?
The T/C was 148 % of control [9 of 10 alive].

And the survivor count (dose: 240.0 mg/kg/injection, schedule: Q01DX011 (ip), vehicle: carboxymethylcellulose (CMC))?
Its survivor count is 6 of 10.

With COC(=O)c1[nH]c(=O)[nH]c(=O)c1F as the compound, how does the T/C [6] read?
The T/C was 145 % of control.

How did the survivor count (dose: 65.0 mg/kg/injection, schedule: Q01DX011 (ip), vehicle: carboxymethylcellulose (CMC)) turn out when O=C(Nc1ccc2c(O)c(N=Nc3ccccc3)c(S(=O)(=O)O)cc2c1)Nc1ccc2c(O)c(N=Nc3ccc4cc(S(=O)(=O)O)ccc4c3)c(S(=O)(=O)O)cc2c1 was run?
Its survivor count is 6 of 10.

And the survivor count [2]?
The survivor count was 6 of 10.

Which survivor count (dose: 100.0 mg/kg/injection, schedule: Q01DX011 (ip), vehicle: methylcellulose (MC)) does the source give for Nc1nc2nc(/N=N/SCCO)[nH]c2c(=O)[nH]1 here?
The survivor count was 2 of 10.

Cn1c(=O)c2[nH]c(/N=N/N3CCCCC3)nc2n(C)c1=O was tested. Which survivor count (dose: 225.0 mg/kg/injection, schedule: Q01DX011 (ip), vehicle: methylcellulose (MC)) did it give?
The survivor count was 4 of 10.

For CC1CN1C(=O)c1cc(C(=O)N2CC2C)cc(C(=O)N2CC2C)c1 (stereo not given), which survivor count (dose: 15.0 mg/kg/injection, schedule: Q01DX011 (ip), vehicle: methylcellulose (MC)) is on record?
Its survivor count is 6 of 10.

And the survivor count (dose: 60.0 mg/kg/injection, schedule: Q01DX011 (ip), vehicle: methylcellulose (MC))?
Its survivor count is 1 of 10 and 3 of 10.

What about the survivor count (dose: 120.0 mg/kg/injection, schedule: Q01DX011 (ip), vehicle: methylcellulose (MC)) of the same compound?
The survivor count was 5 of 10.

Which survivor count (dose: 25.0 mg/kg/injection, schedule: Q01DX011 (ip), vehicle: other) does the source give for O=C1C=C(c2ccccc2)C(=O)C=C1c1ccccc1 here?
The survivor count was 1 of 10.

And the survivor count (dose: 50.0 mg/kg/injection, schedule: Q01DX011 (ip), vehicle: other)?
The survivor count was 5 of 10.
